According to paper PMC9663298:
Results are given in words; binding and its absence hold for the method and conditions named. Binding calls can cover weak binding; strength is not graded here. Sequences can lack the tags named with a protein. For some assays here: Binding seen in cells or lysates may run through a third protein. Each block holds one molecule with its values, some of them ahead of it.

Chains of the proteins cited; added tags and fusions are not shown. Lines headed by an entry give the natural chain unless they say otherwise; changes in a name come on top.
UniProt Q9NZH8: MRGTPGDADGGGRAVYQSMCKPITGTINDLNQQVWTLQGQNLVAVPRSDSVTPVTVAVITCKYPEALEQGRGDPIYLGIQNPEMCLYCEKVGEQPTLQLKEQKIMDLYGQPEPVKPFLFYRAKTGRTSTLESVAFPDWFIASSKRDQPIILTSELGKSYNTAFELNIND

Legend:
[1] = target: T1, GFP–IL-36R (not stated (human or mouse cDNA cloned)) (UniProt Q9HB29); test: flow cytometry on cells; HeLa cells transfected with GFP–IL-36R with or without sIL-36R, 100 ng/ml His-tagged IL-36γ for 30 min, stained with phycoerythrin–anti-His antibody; only the binder purified
T1 sequence: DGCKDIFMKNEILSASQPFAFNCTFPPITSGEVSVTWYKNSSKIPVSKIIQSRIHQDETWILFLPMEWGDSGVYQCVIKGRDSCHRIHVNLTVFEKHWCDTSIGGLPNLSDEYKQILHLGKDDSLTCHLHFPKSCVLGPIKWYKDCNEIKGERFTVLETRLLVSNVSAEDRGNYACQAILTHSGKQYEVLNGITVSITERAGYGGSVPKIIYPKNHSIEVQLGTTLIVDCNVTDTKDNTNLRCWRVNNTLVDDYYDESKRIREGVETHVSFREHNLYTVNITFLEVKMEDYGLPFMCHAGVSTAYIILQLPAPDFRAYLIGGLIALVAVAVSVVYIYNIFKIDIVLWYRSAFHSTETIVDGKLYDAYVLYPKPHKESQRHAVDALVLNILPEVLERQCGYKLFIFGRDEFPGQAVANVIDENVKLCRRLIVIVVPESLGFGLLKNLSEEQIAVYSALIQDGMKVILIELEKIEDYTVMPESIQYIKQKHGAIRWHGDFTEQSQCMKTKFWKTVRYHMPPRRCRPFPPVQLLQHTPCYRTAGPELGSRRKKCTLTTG

His-tagged IL-36γ = His-tagged IL-36γ (UniProt Q9NZH8); test: pull-down; lysates (RIPA buffer) of HeLa cells transfected with indicated doses of Flag-IL36R or Flag-sIL36R plasmids, 1 μg His-tagged IL-36γ added for 4 h, pulled down by anti-His beads, anti-Flag blot; only the target purified

binding [1]: binds
Molecule: His-tagged IL-36γ (from UniProt Q9NZH8) (ligand)

binding (His-tagged IL-36γ): binds
B1: Flag-tagged IL-36 receptor (IL-36R) (receptor, UniProt Q9HB29 20-575)
chain: T1 sequence
